Paper PMC4005694
No constants are given. Whether binding was seen depends on the method and setting. Some results given as binding are weak or reduced against the parent protein; the word gives no strength.

The chains behind the UniProt entries cited, without tags or fusion partners.
UniProt O27496: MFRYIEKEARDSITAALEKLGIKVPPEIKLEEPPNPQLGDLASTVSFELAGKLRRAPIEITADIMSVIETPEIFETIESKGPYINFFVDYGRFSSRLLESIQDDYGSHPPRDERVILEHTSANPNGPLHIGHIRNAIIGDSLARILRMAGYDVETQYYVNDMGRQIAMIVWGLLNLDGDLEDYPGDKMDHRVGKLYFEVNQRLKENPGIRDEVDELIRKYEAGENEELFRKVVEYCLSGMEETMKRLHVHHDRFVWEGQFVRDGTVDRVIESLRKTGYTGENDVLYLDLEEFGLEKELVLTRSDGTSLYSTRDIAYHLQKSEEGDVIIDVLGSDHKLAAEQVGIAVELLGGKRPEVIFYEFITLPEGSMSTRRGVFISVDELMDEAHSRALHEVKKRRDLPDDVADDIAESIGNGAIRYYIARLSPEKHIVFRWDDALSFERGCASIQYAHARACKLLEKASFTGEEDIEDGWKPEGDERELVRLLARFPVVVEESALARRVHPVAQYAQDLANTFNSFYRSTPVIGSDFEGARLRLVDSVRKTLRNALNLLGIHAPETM

What was measured:
[1] = target: Methanothermobacter thermautotrophicus arginyl-tRNA synthetase (M. thermautotrophicus) (UniProt O27496); test: SPR; ArgRS with ribosomal proteins; Ni-NTA surface used to immobilise His-tagged ArgRS, L6 or L12; which was held for which pair is not told; 25°C, Biacore T100; both purified
[2] = target: Methanothermobacter thermautotrophicus methanogenic-type seryl-tRNA synthetase (M. thermautotrophicus) (UniProt O27194); test: native gel or EMSA; L12 (6 µM) mixed with mSerRS dimer (2-6 µM), 15 min at 37°C in 20 mM Tris-HCl pH 7.0, 50 mM NaCl, 6 mM MgCl2; 9% native polyacrylamide gel, Coomassie; both purified
[3] = target: Methanothermobacter thermautotrophicus methanogenic-type seryl-tRNA synthetase (M. thermautotrophicus) (UniProt O27194); test: cross-linking; 70S ribosomes incubated with mSerRS or ArgRS; EDC; quenched; complexes pelleted; SDS-PAGE and mass spectrometry; both purified
[4] = target: Methanothermobacter thermautotrophicus methanogenic-type seryl-tRNA synthetase (M. thermautotrophicus) (UniProt O27194); test: SPR; unpublished observation; mSerRS with EF-G; format not told
[5] = target: T1, mSerRS as bait of the yeast two-hybrid search (M. thermautotrophicus) (UniProt O27194); test: two-hybrid; yeast two-hybrid search for proteins that interact with mSerRS; preliminary, data not shown
T1 sequence: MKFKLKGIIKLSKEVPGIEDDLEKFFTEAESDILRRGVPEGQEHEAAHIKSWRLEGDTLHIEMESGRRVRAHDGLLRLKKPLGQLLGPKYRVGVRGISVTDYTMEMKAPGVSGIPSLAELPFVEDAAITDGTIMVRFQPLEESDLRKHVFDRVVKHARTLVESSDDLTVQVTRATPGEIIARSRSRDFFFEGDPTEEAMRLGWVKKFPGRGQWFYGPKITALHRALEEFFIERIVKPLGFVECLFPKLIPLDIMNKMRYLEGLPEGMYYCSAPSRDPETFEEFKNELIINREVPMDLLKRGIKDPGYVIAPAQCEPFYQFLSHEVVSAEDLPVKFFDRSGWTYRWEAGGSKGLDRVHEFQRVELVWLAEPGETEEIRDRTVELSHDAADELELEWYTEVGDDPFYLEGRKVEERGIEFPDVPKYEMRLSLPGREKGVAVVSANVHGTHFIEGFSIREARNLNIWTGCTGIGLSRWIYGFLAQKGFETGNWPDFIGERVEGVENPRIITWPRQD

B1: recombinant ribosomal protein L12 of M. thermautotrophicus (protein, UniProt P05394 1-101)
chain: MEYIYAAMLLHTTGKEINEENVKSVLEAAGAEVDDARVKALIAALEDVDIEEAMETTAVAAAPAAAAAPAAAEEAEEEAEEEEEEEEAEEEAAAGLGALFG
B1 was tested, and the binding [1] was “binds” and the binding [2] was “binds”.

B2: ribosomal protein L12p (P1 homologue) of M. thermautotrophicus, as it stands in the ribosome (protein, UniProt P05394 1-101)
chain: MEYIYAAMLLHTTGKEINEENVKSVLEAAGAEVDDARVKALIAALEDVDIEEAMETTAVAAAPAAAAAPAAAEEAEEEAEEEEEEEEAEEEAAAGLGALFG
B2 was tested, and the binding [3] was “binds”.

B3: EF-G used in SPR with mSerRS (unpublished experiment) (protein, UniProt O27131 1-730)
chain: MSRRAKMISKIKELMYQPEYIRNIGIVAHIDHGKTTLSDNLLAGAGMISAELAGDQRFLDFDEQEQARGITIDAANVSMVHSYEGNEYLINLIDTPGHVDFGGDVTRAMRAVDGAVVVVCAVEGIMPQTETVLRQALKENVRPVLFINKVDRLINELKLDASELQERFVKIIANANKLIKNMAPEEFRDKWQVRVEDGSVAFGSAYHNWAINVPIMQETGINFNDIYKYCTEDNQKELAQKVPLHQVLLGMVVEHLPSPAESQAYRVPIIWSGDLESEEGQAMLKTDPEGPLAVMVTDVSIDKHAGEVATGRVYGGAIEKGSEVFLVGSHSKARVQQVGVYMGPERVNTDKVPAGNIVAITGAKNAVAGETICDTGRKIKAFEGLEHISEPVVTVAVEAKNTKDLPKLIEVLRQVGKEDPTVRVEINEETGEHLISGMGELHLEIIAYRINEKGVEIETSEPIVVYRETVAGTAGPVEGKSPNKHNRFYIEIEPVEASVMQAIQEGKIKEGRVKGKEMAKNFIEAGMDKEEARRVWDVYEKNLFINMTRGIQYLDEIKELLMDGFESAMDNGPVAKEKVMGVKIKLMDAKIHEDAVHRGPAQVLPAIRKGIFGAMMSAEPVLLEPIQKVFINVPQDYMGSATREIQNRRGQIVNMTQEGDMVTVESTVPVAEMFGFAGDIRSATEGRCLWSTENAGFERLPNELQHTITREVRTRKGLSPEPYRADHYLG
B3 was tested, and the binding [4] was “binds”.

B4: ribosomal protein L3 as found in the yeast two-hybrid search (protein, UniProt O26110 1-337)
chain: MARHHQPRKGSVAFSPRKRAARETPRVKSWPQVDEPGLLALAGYKAGMTHVMMVDNQKNSPTEGMEVSTPVTILEVPPLTVMAVRTYEKTSRGLKTLGEVLATETKDDLRRKLTPPADDYDQEAAIEKIRSNMEYVADVRVIVHTNPRLASVPKKKPEVFECGLGGKTPEEKFEYALEILGKDVRASEIFSEGAFVDAIAVTKGKGFQGPVKRWGIRIQYGKAARSSKGRHIGSLGPWTPSRTMWTVPQAGQMGYHRRTEYNKQILKIGDASEADLVNPDGGFVRYGLVRNDYVMIKGSVPGPTKRLVVLRKAIRAAGKQEEAPQINYISTASKQGV
With B4 the binding [5] was “binds”.
